Laboratory results: patent US20230072421A1 (Bayer AS, priority 2019, published 2023)

Test: general procedure: peptide synthesis; 2-chlorotrityl resin; HATU; PyAOP
Settings: late stage modification step

| Substance | crude purity (method not given) [% purity] | final purity (method not given) [% purity] | step yield [% yield] |
| --- | --- | --- | --- |
| (3R,10S,14S,3′R,10'S,14'S)-1,1′-(propane-1,3-diylbis{[(2-{[1-(carboxymethyl)-3-hydroxy-6-methyl-2-oxo-1,2-dihydropyridine-4-carbonyl]amino}ethyl)azanediyl]ethane-2,1-diylcarbamoyl(3-hydroxy-6-methyl-2-oxopyridine-4,1(2H)-diyl)(1-oxoethane-2,1-diyl)azanediylmethylene(1r,4S)cyclohexane-4,1-diyl})bis(3-{[4-(methylamino)naphthalen-2-yl]methyl}-1,4,12-trioxo-2,5,11,13-tetraazahexadecane-10,14,16-tricarboxylic acid) | 95 | – | – |
| (3S,10S,14S)-1-[4-(aminomethyl)phenyl]-3-[(naphthalen-2-yl)methyl]-1,4,12-trioxo-2,5,11,13-tetraazahexadecane-10,14,16-tricarboxylic acid | – | 90 | 11 |
| (3S,10S,14S)-1-[(1r,4S)-4-(43-amino-3,7-dioxo-5,11,14,17,20,23,26,29,32,35,38,41-dodecaoxa-2,8-diazatritetracontan-1-yl)cyclohexyl]-3-[(naphthalen-2-yl)methyl]-1,4,12-trioxo-2,5,11,13-tetraazahexadecane-10,14,16-tricarboxylic acid | – | – | 100 |
| (3S,10S,14S)-1-[(1r,4S)-4-(aminomethyl)cyclohexyl]-3-[(1-bromonaphthalen-2-yl)methyl]-1,4,12-trioxo-2,5,11,13-tetraazahexadecane-10,14,16-tricarboxylic acid | – | 85 | 76 |
| (3S,10S,14S)-1-[(1r,4S)-4-(aminomethyl)cyclohexyl]-3-[([1,1′-biphenyl]-4-yl)methyl]-1,4,12-trioxo-2,5,11,13-tetraazahexadecane-10,14,16-tricarboxylic acid | – | 98 | 58 |
| (3S,10S,14S)-1-[(1r,4S)-4-(aminomethyl)cyclohexyl]-3-[(naphthalen-2-yl)methyl]-1,4,12-trioxo-2-[(6-oxo-1,6-dihydropyridin-2-yl)methyl]-2,5,11,13-tetraazahexadecane-10,14,16-tricarboxylic acid | 90 | – | 33 |
| (3S,10S,14S)-1-[(1r,4S)-4-({2-[4-({2-[{3-[bis(2-{[1-(carboxymethyl)-3-(hydroxy-kappaO)-6-methyl-2-(oxo-kappaO)-1,2-dihydropyridine-4-carbonyl]amino}ethyl)amino]propyl}(2-{[1-(carboxymethyl)-3-(hydroxy-kappaO)-6-methyl-2-(oxo-kappaO)-1,2-dihydropyridine-4-carbonyl]amino}ethyl)amino]ethyl}carbamoyl)-3-(hydroxy-kappaO)-6-methyl-2-(oxo-kappaO)pyridin-1(2H)-yl]acetamido}methyl)cyclohexyl]-3-[(naphthalen-2-yl)methyl]-1,4,12-trioxo-2,5,11,13-tetraazahexadecane-10,14,16-tricarboxylato(4−)(^232Th)Thorium | 95 | – | 92 |
| (3S,10S,14S)-3-[(naphthalen-2-yl)methyl]-1,4,12-trioxo-1-[4-({2-[4,7,10-tris(carboxymethyl)-1,4,7,10-tetraazacyclododecan-1-yl]acetamido}methyl)phenyl]-2,5,11,13-tetraazahexadecane-10,14,16-tricarboxylic acid | – | 95 | 21 |
| (4S,11S,15S)-1-(4-aminophenyl)-4-[(naphthalen-2-yl)methyl]-2,5,13-trioxo-3,6,12,14-tetraazaheptadecane-11,15,17-tricarboxylic acid | – | 95 | 41 |
| (4S,11S,15S)-4-[(naphthalen-2-yl)methyl]-2,5,13-trioxo-1-(4-{2-[4,7,10-tris(carboxymethyl)-1,4,7,10-tetraazacyclododecan-1-yl]acetamido}phenyl)-3,6,12,14-tetraazaheptadecane-11,15,17-tricarboxylic acid | – | 90 | 11 |
| N^6-{3-(3,4-dihydro-2H-1-benzopyran-6-yl)-N-[(1r,4S)-4-({2-[4,7,10-tris(carboxymethyl)-1,4,7,10-tetraazacyclododecan-1-yl]acetamido}methyl)cyclohexane-1-carbonyl]-D-alanyl}-N^2-{[(1S)-1,3-dicarboxypropyl]carbamoyl}-L-lysine | – | 95 | 26 |
| N^6—{N-[(1r,4S)-4-(aminomethyl)cyclohexane-1-carbonyl]-2-methyl-L-phenylalanyl}-N^2-{[(1S)-1,3-dicarboxypropyl]carbamoyl}-L-lysine | – | 80 | 54 |
| N^6—{N-[(1r,4S)-4-(aminomethyl)cyclohexane-1-carbonyl]-3-(pentafluoro-lambda^6-sulfanyl)-L-phenylalanyl}-N^2-{[(1S)-1,3-dicarboxypropyl]carbamoyl}-L-lysine | – | 99 | 48 |
| N^6—{N-[(1r,4S)-4-(aminomethyl)cyclohexane-1-carbonyl]-3-(quinolin-3-yl)-L-alanyl}-N^2-{[(1S)-1,3-dicarboxypropyl]carbamoyl}-L-lysine | – | 95 | 72 |
| N^6—{N-[(1r,4S)-4-(aminomethyl)cyclohexane-1-carbonyl]-3-fluoro-L-phenylalanyl}-N^2-{[(1S)-1,3-dicarboxypropyl]carbamoyl}-L-lysine | – | 98 | 59 |
| N^6—{N-[(1r,4S)-4-(aminomethyl)cyclohexane-1-carbonyl]-4-methyl-L-phenylalanyl}-N^2-{[(1S)-1,3-dicarboxypropyl]carbamoyl}-L-lysine | – | 90 | 36 |
| N^6—{N-[(1r,4S)-4-(aminomethyl)cyclohexane-1-carbonyl]-4-tert-butyl-L-phenylalanyl}-N^2-{[(1S)-1,3-dicarboxypropyl]carbamoyl}-L-lysine | – | 90 | 27 |
| N^6—{N-[(1r,4S)-4-(aminomethyl)cyclohexane-1-carbonyl]-L-tyrosyl}-N^2-{[(1S)-1,3-dicarboxypropyl]carbamoyl}-L-lysine | – | 99 | 73 |
| N^6—{N-[(1r,4S)-4-({2-[4-({2-[{3-[bis(2-{[1-(carboxymethyl)-3-hydroxy-6-methyl-2-oxo-1,2-dihydropyridine-4-carbonyl]amino}ethyl)amino]propyl}(2-{[1-(carboxymethyl)-3-hydroxy-6-methyl-2-oxo-1,2-dihydropyridine-4-carbonyl]amino}ethyl)amino]ethyl}carbamoyl)-3-hydroxy-6-methyl-2-oxopyridin-1(2H)-yl]acetamido}methyl)cyclohexane-1-carbonyl]-3-(quinolin-3-yl)-L-alanyl}-N^2-{[(1S)-1,3-dicarboxypropyl]carbamoyl}-L-lysine | 95 | – | 104 |
| N^6—{N^2-[(1r,4S)-4-(aminomethyl)cyclohexane-1-carbonyl]-N^6-(pyridine-3-carbonyl)-L-lysyl}-N^2-{[(1S)-1,3-dicarboxypropyl]carbamoyl}-L-lysine | – | 95 | 76 |
| N^6—{N^6-acetyl-N^2-[(1r,4S)-4-(aminomethyl)cyclohexane-1-carbonyl]-L-lysyl}-N^2-{[(1S)-1,3-dicarboxypropyl]carbamoyl}-L-lysine | – | 89 | – |
| formic acid-tri-tert-butyl (3S,10S,14S)-1-[(1r,4S)-4-(aminomethyl)cyclohexyl]-3-[([1,1′-biphenyl]-4-yl)methyl]-1,4,12-trioxo-2,5,11,13-tetraazahexadecane-10,14,16-tricarboxylate (1/1) | – | 98 | 54 |
| formic acid-tri-tert-butyl (7S,14S,18S)-7-{[(1r,4S)-4-(aminomethyl)cyclohexane-1-carbonyl]amino}-1,8,16-trioxo-1-(pyridin-3-yl)-2,9,15,17-tetraazaicosane-14,18,20-tricarboxylate (1/1) | – | 98 | 44 |
| tri-tert-butyl (3S,10S,14S)-1-[4-(aminomethyl)phenyl]-3-[(naphthalen-2-yl)methyl]-1,4,12-trioxo-2,5,11,13-tetraazahexadecane-10,14,16-tricarboxylate | – | 70 | 23 |
| tri-tert-butyl (3S,10S,14S)-1-[(1r,4S)-4-(aminomethyl)cyclohexyl]-1,4,12-trioxo-3-{[3-(pentafluoro-lambda^6-sulfanyl)phenyl]methyl}-2,5,11,13-tetraazahexadecane-10,14,16-tricarboxylate | – | 95 | 51 |
| tri-tert-butyl (3S,10S,14S)-1-[(1r,4S)-4-(aminomethyl)cyclohexyl]-3-[(1-bromonaphthalen-2-yl)methyl]-1,4,12-trioxo-2,5,11,13-tetraazahexadecane-10,14,16-tricarboxylate | – | – | 37 |
| tri-tert-butyl (3S,10S,14S)-1-[(1r,4S)-4-(aminomethyl)cyclohexyl]-3-[(2-methylphenyl)methyl]-1,4,12-trioxo-2,5,11,13-tetraazahexadecane-10,14,16-tricarboxylate | – | 80 | – |
| tri-tert-butyl (3S,10S,14S)-1-[(1r,4S)-4-(aminomethyl)cyclohexyl]-3-[(3-fluorophenyl)methyl]-1,4,12-trioxo-2,5,11,13-tetraazahexadecane-10,14,16-tricarboxylate | – | – | 80 |
| tri-tert-butyl (3S,10S,14S)-1-[(1r,4S)-4-(aminomethyl)cyclohexyl]-3-[(4-methylphenyl)methyl]-1,4,12-trioxo-2,5,11,13-tetraazahexadecane-10,14,16-tricarboxylate | – | 80 | 47 |
